Source: PubChem BioAssay AID1159506 (NCATS, 2015).

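Genome-wide siRNA knockdown in TC32 Ewing sarcoma cells, comparing luciferase light from an NR0B1-promoter reporter with a CMV-promoter reporter 48 hours after transfection.
Each siRNA was applied at 20 nM.
A z-score of the log NR0B1-over-CMV signal, less the median of siRNAs with the same seed; more negative means a stronger specific loss of the NR0B1 reporter.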

The strongest results of the screen are mostly left out here.
Sequences are the guide (antisense) strand, without overhang.

strand	gene	seed-corrected z-score
UCAUGUAGUAUGCUCCUCU	SPAG7	-0.7982
AAUGUUUUCCCAUAGUUGU	CHAT	-0.12
UACUUGCUGACUACUAAUG	THAP2	-0.282
UAAAAUCGGAGAAUACUUC	UBE4B	-0.1004
UAUAAGAAUGCGCAGACUG	BEX5	0.1943
UCUUAGACAACAUGACACC	CCDC168	0.5097
UUCCAAGUAAAGGCCGUUC	KCTD18	0.1175
UCCUGGUCAUCUGUAGCUC	PRODH	-1.294
UUCGUGGAACUGGGAACUG	C2orf50	-0.1153
AUUGUCGCAGAAGAUAUCC	CRTAC1	-0.78
UCUAAUCACAGAUCUAAUG	MCOLN3	-0.03807
UAUGUGGUCAAAACGAAUU	XBP1	-0.504
AAGGUACUCACCGUUUUUC	ADAMTS5	-0.07901
UUAGAGUAUACAGAACUCG	GABRG1	-0.1844
UGGUUUUAGAGUAGAUUUC	RFC2	-0.2022
UUCCCAACAAACUAGUGUC	TMEFF1	0.4694
UAUUUCUUUGGAGAUAACC	KBTBD12	0.7285
UACUGAUCACAGAGCAUCC	PDK4	-0.2531
UUUUAGAAAGAACCCAUCG	SIGLEC10	0.03275
UUCCGCAUUCGUAAGACCC	ZNF618	0.1724
UAAGUUCCAAGGCCGACUG	FGFR1OP2	-0.07894
AGCUGAUUGAGCUUGCGGC	RPL29P30	-1.471
ACAAUGAAGACGUACAUCU	OR10P1	0.5185
AAUCGAACAAAAUACAUGG	RNF219	0.8062
AAUGACGAAAAUUAAAGCC	OR52E2	-0.2793
UUCUCGUAUAGUGAGACUG	XKR3	0.5736
UACACGAUAUUUAUCAAUC	CDC23	-0.5725
AUUCUGAUGGUUCUUCUCC	PGRMC2	0.3058
UGAGGUCCAACAGGUAGUC	NDOR1	-0.217
UGUUCUAUUAGUGUGAGGG	SLAMF7	-0.6536
AAAGUUUGAGGUCACGUCC	CBX8	-0.3554
UCAAAGUAGCCCUUGAUCC	MRPL49	1.236
UUCGGGUAUUCCAUGAUUC	TMEM156	1.831
AUAGAGUCCACAUUCAUCA	IFNA5	1.58
ACAAGGACCAUCCCAGUGU	TMEM108	0.6649
UAGUCAUCCACGGUUAUCU	EGFLAM	-0.4107
UUGACUUCAAGCAAAGCCU	MSLN	-0.6683
UAACGAAAUACAAUCUCCU	JAML	0.6159
UAACAGAUAGUUAACGGAC	GNAI3	0.1849
UAAUGUCCCUGCAUGCACC	INTS5	0.8938
UGCUGAAUCAGUGCGGUUC	SYNE1	1.095
UCCAGAGUCAUGGAGACAG	STAG3L1	-0.8477
AAUGGAAUUAGCAAGCAUG	ARMCX3	0.5457
AGGAGUAACAUAUCCUUUC	CTSK	-0.4185
UUACAUACAUAUAAUCUCU	HS3ST3B1	1.071
UCUUUUUCAGGUUUUCUUC	RRP15	0.6551
AAAUUGAUCAUGUUUGAGG	LINC00619	-0.5401
UACCAAACCGCUUGUAACC	COLEC12	0.7908
AAAGUUCCAAGACGCACCC	VSIG2	1.361
UGAAUAAGUCCGAUUGUGC	UCHL1	0.1016
UAUCUUCAUCAGAGUAUCC	GNAQ	-0.4146
ACAAAUACUAACCUGUUUC	CYP1B1-AS1	0.573
AAAGCAAUGAGGGUGUUGU	PIGU	-0.08958
UUUGUUUACCGUGCGCUUG	WDR24	0.1127
AACGGUCAUAAAAGUAUCC	PER3	0.1128
UUUGUGAUUAUUCUCUGAG	PER2	-0.3312
UAGGUGUCGAAGUCGUUGC	C1QTNF6	-0.504
UAUAGGAGUACUGCUGUCG	LRRC8B	-1.555
UCUGAGUUUCCGAAUAGCC	TSLP	-0.4394
UCUCAUGAUAUCACAAACU	FRMPD2	0.8526
AUAGCUAUAUUCAUAAGGG	ATL3	0.01974
AUGGUUCAACUUAAAGUGC	STRIP1	-1.009
ACAGUGUAAGUGAACCUGC	COL1A2	0.6459
UUGUGCAUCAGAAGCAUCA	GRWD1	1.129

The first 5 entries again:

strand	gene	seed-corrected z-score
UCAUGUAGUAUGCUCCUCU	SPAG7	-0.7982
AAUGUUUUCCCAUAGUUGU	CHAT	-0.12
UACUUGCUGACUACUAAUG	THAP2	-0.282
UAAAAUCGGAGAAUACUUC	UBE4B	-0.1004
UAUAAGAAUGCGCAGACUG	BEX5	0.1943